These are yes or no findings as the source states them, for the method shown. Where a sequence is shown, tags or fusion partners need not be part of it.
Target: T1, 6xHis-tagged ENL YEATS domain (human, UniProt Q03111 1-148)
T1 chain: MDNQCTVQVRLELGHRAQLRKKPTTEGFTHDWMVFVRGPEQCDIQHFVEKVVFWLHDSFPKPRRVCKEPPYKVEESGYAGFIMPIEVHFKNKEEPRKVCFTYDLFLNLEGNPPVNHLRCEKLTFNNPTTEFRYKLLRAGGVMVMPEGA
Assay: AlphaScreen or HTRF; competition: biotinylated H3K27cr peptide on streptavidin donor beads, His-ENL YEATS on nickel-chelating (Ni-NTA) acceptor beads; test peptide varied; n = 3; both purified

YDVYCYA [ENL-S1 with BuK replaced by alanine]
binding: no binding

From article PMC11046469, “Leveraging a Phage-Encoded Noncanonical Amino Acid: A Novel Pathway to Potent and Selective Epigenetic Reader Protein Inhibitors” (ACS Central Science, 2024)
